Test results taken from PMC10626543.
Results are given in words; binding and its absence hold for the method and conditions named. In cells and extracts the contact can be indirect. These calls come from enrichment with a bait or labelling near it, and not all partners need be listed.

Amino acid sequences for entries named in this document (tags omitted). Residues count along the entry.
UniProt P48678, residues 1-647: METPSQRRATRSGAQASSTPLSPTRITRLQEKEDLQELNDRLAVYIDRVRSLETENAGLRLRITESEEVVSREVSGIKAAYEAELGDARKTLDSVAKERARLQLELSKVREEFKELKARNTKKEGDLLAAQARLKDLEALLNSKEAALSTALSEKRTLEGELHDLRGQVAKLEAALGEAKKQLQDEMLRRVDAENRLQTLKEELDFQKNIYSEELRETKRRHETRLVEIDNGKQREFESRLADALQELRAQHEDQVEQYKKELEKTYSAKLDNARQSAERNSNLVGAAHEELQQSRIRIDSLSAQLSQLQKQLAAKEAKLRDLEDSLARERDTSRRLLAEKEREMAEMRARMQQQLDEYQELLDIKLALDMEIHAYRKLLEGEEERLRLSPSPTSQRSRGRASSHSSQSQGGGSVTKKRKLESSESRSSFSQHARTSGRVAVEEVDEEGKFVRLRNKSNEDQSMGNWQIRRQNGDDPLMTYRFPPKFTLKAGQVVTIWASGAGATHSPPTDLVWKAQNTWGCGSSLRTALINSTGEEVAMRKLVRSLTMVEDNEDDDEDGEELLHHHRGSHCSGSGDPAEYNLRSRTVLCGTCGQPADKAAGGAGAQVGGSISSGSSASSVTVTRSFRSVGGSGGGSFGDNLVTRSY

B1: Pygb (glycogen phosphorylase, brain isoform) (protein, UniProt Q8CI94 1-843)
chain: MAKPLTDSERQKQISVRGIAGLGDVAEVRKSFNRHLHFTLVKDRNVATPRDYFFALAHTVRDHLVGRWIRTQQHYYERDPKRIYYLSLEFYMGRTLQNTMVNLGLQTACDEATYQLGLDLEELEEIEEDAGLGNGGLGRLAACFLDSMATLGLAAYGYGIRYEFGIFNQKIVNGWQVEEADDWLRYGNPWEKARPEYMLPVHFYGRVEHTPDGVLWLDTQVVLAMPYDTPVPGYKNNTVNTMRLWSAKAPNDFKLKDFNVGDYIEAVLDRNLAENISRVLYPNDNFFEGKELRLKQEYFVVAATLQDIIRRFKSSRFGCRDPVRTCFETFPDKVAIQLNDTHPALSIPELMRILVDVEKVDWDKAWEITKKTCAYTNHTVLPEALERWPVSMFEKLLPRHLEIIYAINQRHLDHVAALFPGDVDRLRRMSVIEEGDCKRINMAHLCVIGSHAVNGVARIHSEIVKQSVFKDFYELEPEKFQNKTNGITPRRWLLLCNPGLAEIIVERIGEGFLTDLSQLKKLLSLVDDEAFIRDVAKVKQENKLKFSAQLEKEYKVKINPASMFDVHVKRIHEYKRQLLNCLHIITLYNRIKKDPAKAFVPRTVMIGGKAAPGYHMAKMIIKLVTSIGDVVNHDPVVGDRLRVIFLENYRVSLAEKVIPAADLSQQISTAGTEASGTGNMKFMLNGALTIGTMDGANVEMAEEAGEENLFIFGMRVEDVEALDQKGYNAREFYERLPELRQAVDQISSGFFSPKDPDCFKDVVNMLMYHDRFKVFADYEAYIQCQAQVDRLYRNSKEWTKKVIRNIACSGKFSSDRTITEYAREIWGVEPSDLQIPPPNLPKD
B2: Gins3 (mouse) (protein, UniProt Q9CY94 1-216)
chain: MSEAYFPVESGALGPEENFLSLDDILMSQEKLPVRVETPMPRLGAFFLERGAGSEPDHPLPQGTKLELPLWLAKGLFDHKRRILSVELPKMYQEGWRTVFSADANVVDLHKMGPHFYGFGSQLLHFDSPENADISQSLLKTFIGRFRRIMDSSQNSYNEDTSALVARLDETERGLFQIGQRSLNDFQSWEKGQASQITASSLVQNYKKRKFTNMED
B3: Cpt1B (carnitine O-palmitoyltransferase 1) (protein, UniProt Q924X2 1-772)
chain: MAEAHQAVAFQFTVTPDGVDFRLSREALRHIYLSGINSWKKRLIRIKNGILRGVYPGSPTSWLVVVMATVGSNYCKVDISMGLVDCIQRCLPERYGHFGTPQTEALLSMVIFSTGVWATGIFFFRQTLKLLLSYHGWMFEMHSKTSHATKIWAICVRLLSSRRPMLYSFQTSLPKLPVPSVPATIHRYLDSVRPLLDDEAYYRMETLAKEFQDKTAPRLQKYLVLKSWWATNYVSDWWEEYVYLRSRSPLMVNSNYYAMDFVLIKNTNVQAARLGNAVHAMIMYRRKLDREEIKPVMALGMVPMCSYQMERMFNTTRIPGKETDLLQHLSESRHVAVYHKGRFFKVWLYEGSRLLKPRDLEMQFQRILDDPSPPQPGEEKLAALTAGGRVEWAEARQTFFSSGKNKMSLDAIERAAFFVTLDEDSHCYNPDDETSLSLYGKALLHGNCYNRWFDKSFTLISCKNGLLGLNTEHSWADAPIIGHLWEFVLGTDTFHLGYTETGHCVGEPNTTLPPPQRLPWDIPEQCREAIENSYQVAKALADDVELYCFQFLPFGKGLIKKCRTSPDAFVQIALQLAHFRDKGKFCLTYEASMTRMFREGRTETVRSCTNESAAFVQAMMKGSHKKQDLQDLFRKASEKHQNMYRLAMTGAGIDRHLFCLYIVSKYLGVSSPFLAEVLSEPWSLSTSQIPQFQICMFDPKQYPNHLGAGGGFGPVADDGYGVSYMIAGENTMFFHISSKYSSSETNAQRFGNHIRQALLDIAELFKISKTDS
B4: Cullin-associated NEDD8-dissociated protein 2 (protein, UniProt Q6ZQ73 1-1235)
chain: MSTGAFYISSLLEKMTSSDKDFRFMATSDLMSELQKDSIQLDEDSERKVVRTLLRLLEDRSGEVQNLAVKCLGPLVGKVKEYQVENIVDTLCANMRSDKEQLRDIAGIGLKTVLSELPPAATGSGLAINVCRKITGQLTSAIAQQEDVAVQLEALDILSDMLSRLGAPLGTFHASLLHCLLPQLSSPRLAVRKRTVVALGHLAAACSTDLFVELADHLVDRLPGPRAPASPAAIRTLIQCLGSVGRQAGHRLGAHLDRLVPMVEEFCNLDDDELRESCLQAFEAFLRKCPKEMDPHVPNVTSLCLQYMKHDPNYDHDSDDEEQMETEDSEFSEQESEDEYSDDDDMSWKVRRAAAKCMAALISSRPDLLPDFHCTLAPALIRRFKEREENVKADIFGAYIMLLRHTRPPKGWLEAVEEPTQTGRNLNMLRAQVPLVIKALQRQLKDRNVRTRQGCFNLFTELAGVLPGSLAEHMAVLVSGIVFSLADYSSSSTIRMDALAFLQGLLGTEPAEAFHPHLPTLLPPVMACVADPFYKVAAEALLVLQELVRTLWPLDRPRLLDPEPYVGEMSTATLARLRATDLDQEVKERAISCVGHLVGHLGDRLGDDLEPTLMLLLDRLRNEITRLPAVKALTLVAMSPLRLDLQPILAEALPILASFLRKNQRALRLATLAALDALAQSQGLGLPPPAVRTVLTELPALVSENDMHVAQLAVDFLTTVTQTQPSSLVEVSGPVLGELLQLLHSPLLPAGVLAATEGFLQALVGTRPPCVEYSELISLLTAPVYNQVGDGGPGLHKQVFHSLARCVAALSAACPQEAAGTASRLVCDAKSPHSSTGVKVLAFLSLAEVGQVAGPGPQRELKTVLLEALGSPSEDVRAAAAYALGRVGAGNLPDFLPFLLAQIEAQPRRQYLLLHALREALGAAQPDNLKPYVEDVWALLFQRCESPEEGTRCVVAECIGKLVFVNPPYLLPRFRKQLAAGQPYTRSTVITAVKFLISDQPHSIDPLLKSFIAEFMESLQDPDLNVRRATLTFFNSAVHNKPSLVRDLLDDILPLLYQETKIRRDLIREVEMGPFKHTVDDGLDVRKAAFECMYSLLESCLGQLDMCEFLNHVEDGLKDHYDIRMLTFIMLARLATLCPAPVLQRVDRLIEPLRATCTAKVKAGSVKQELEKQEELKRSAMRAVAALLTNPEVRKSPTVADFSAQIRSNPELTTLFESIQKDTASGPSTDSMELS
B5: HHATL (protein-cysteine N-palmitoyltransferase HHAT-like protein) (protein, UniProt Q9D1G3 1-503)
chain: MGIKTALPAAELGLYSLVLSGALAYAGRGLLEASQDGAHRKAFRESVRPGWEYLGRKMDVADFEWVMWFTNFRNVIVFALSGHVLFAKLCTMVAPQLRSWMYAVYGVLAVVGTMGPWYLLLLLGHCMVLYVASLLGQRWLCLALGLASLASFKVDPGISWQSGFVTGTFDLQDVLFHGGSSFTVLRCTSFALESCAHPDRRYSLADLLKYNFYLPFFFFGPIMTFDRFHAQVSQEPVRPEGELWHIQAQAGLSAAAIVAVDVFFHFFYILTIPSDLKFASRLPDSALAGLAYSNLVYDWVKAAVLFGVVNTVARLDHLDPPQPPKCITALYVFGETHFDRGINDWLCKYVYDHIGGDHSTVIPELAASVATFVVTTLWLGPCDIVYLWSVLNCFGLNFELWVQKLAERGPLAQIEARLSEQMSRRVRALCGAVNFWAIIMYNLVSLNSLEFTELVARRLILTGFPQTTLAVLFVTYCGVQLVKERERSLALEEEQRQDREKLE
B6: Myl6 (myosin light chain 6) (protein, UniProt Q60605 1-151)
chain: MCDFTEDQTAEFKEAFQLFDRTGDGKILYSQCGDVMRALGQNPTNAEVLKVLGNPKSDEMNVKVLDFEHFLPMLQTVAKNKDQGTYEDYVEGLRVFDKEGNGTVMGAEIRHVLVTLGEKMTEEEVEMLVAGHEDSNGCINYEAFVRHILSG

molecular target: native lamin A/C (mouse (endogenous in heart, skeletal muscle and brain)) (UniProt P48678); assay: affinity purification with mass spectrometry; native lamin A/C immunoprecipitated with mAb 4C11 and Protein G Sepharose from sonicated heart lysates of old IL10-KO and control C57Bl/6 female mice (five each); 50 mM Tris pH 7.4, 300 mM NaCl, 0.3% Triton X-100, 4°C; TMT 10-plex

binding, binds:
B1
B2
B3
B4
B5
B6
